Experimental data reported in article PMC8970680.
These are yes or no findings as the source states them, for the method shown. Binding seen in cells or lysates may run through a third protein. Some results given as binding are weak or reduced against the parent protein; the word gives no strength.

Amino acid sequences for entries named in this document (tags omitted). Residues count along the entry.
UniProt G3V928, residues 20-4545: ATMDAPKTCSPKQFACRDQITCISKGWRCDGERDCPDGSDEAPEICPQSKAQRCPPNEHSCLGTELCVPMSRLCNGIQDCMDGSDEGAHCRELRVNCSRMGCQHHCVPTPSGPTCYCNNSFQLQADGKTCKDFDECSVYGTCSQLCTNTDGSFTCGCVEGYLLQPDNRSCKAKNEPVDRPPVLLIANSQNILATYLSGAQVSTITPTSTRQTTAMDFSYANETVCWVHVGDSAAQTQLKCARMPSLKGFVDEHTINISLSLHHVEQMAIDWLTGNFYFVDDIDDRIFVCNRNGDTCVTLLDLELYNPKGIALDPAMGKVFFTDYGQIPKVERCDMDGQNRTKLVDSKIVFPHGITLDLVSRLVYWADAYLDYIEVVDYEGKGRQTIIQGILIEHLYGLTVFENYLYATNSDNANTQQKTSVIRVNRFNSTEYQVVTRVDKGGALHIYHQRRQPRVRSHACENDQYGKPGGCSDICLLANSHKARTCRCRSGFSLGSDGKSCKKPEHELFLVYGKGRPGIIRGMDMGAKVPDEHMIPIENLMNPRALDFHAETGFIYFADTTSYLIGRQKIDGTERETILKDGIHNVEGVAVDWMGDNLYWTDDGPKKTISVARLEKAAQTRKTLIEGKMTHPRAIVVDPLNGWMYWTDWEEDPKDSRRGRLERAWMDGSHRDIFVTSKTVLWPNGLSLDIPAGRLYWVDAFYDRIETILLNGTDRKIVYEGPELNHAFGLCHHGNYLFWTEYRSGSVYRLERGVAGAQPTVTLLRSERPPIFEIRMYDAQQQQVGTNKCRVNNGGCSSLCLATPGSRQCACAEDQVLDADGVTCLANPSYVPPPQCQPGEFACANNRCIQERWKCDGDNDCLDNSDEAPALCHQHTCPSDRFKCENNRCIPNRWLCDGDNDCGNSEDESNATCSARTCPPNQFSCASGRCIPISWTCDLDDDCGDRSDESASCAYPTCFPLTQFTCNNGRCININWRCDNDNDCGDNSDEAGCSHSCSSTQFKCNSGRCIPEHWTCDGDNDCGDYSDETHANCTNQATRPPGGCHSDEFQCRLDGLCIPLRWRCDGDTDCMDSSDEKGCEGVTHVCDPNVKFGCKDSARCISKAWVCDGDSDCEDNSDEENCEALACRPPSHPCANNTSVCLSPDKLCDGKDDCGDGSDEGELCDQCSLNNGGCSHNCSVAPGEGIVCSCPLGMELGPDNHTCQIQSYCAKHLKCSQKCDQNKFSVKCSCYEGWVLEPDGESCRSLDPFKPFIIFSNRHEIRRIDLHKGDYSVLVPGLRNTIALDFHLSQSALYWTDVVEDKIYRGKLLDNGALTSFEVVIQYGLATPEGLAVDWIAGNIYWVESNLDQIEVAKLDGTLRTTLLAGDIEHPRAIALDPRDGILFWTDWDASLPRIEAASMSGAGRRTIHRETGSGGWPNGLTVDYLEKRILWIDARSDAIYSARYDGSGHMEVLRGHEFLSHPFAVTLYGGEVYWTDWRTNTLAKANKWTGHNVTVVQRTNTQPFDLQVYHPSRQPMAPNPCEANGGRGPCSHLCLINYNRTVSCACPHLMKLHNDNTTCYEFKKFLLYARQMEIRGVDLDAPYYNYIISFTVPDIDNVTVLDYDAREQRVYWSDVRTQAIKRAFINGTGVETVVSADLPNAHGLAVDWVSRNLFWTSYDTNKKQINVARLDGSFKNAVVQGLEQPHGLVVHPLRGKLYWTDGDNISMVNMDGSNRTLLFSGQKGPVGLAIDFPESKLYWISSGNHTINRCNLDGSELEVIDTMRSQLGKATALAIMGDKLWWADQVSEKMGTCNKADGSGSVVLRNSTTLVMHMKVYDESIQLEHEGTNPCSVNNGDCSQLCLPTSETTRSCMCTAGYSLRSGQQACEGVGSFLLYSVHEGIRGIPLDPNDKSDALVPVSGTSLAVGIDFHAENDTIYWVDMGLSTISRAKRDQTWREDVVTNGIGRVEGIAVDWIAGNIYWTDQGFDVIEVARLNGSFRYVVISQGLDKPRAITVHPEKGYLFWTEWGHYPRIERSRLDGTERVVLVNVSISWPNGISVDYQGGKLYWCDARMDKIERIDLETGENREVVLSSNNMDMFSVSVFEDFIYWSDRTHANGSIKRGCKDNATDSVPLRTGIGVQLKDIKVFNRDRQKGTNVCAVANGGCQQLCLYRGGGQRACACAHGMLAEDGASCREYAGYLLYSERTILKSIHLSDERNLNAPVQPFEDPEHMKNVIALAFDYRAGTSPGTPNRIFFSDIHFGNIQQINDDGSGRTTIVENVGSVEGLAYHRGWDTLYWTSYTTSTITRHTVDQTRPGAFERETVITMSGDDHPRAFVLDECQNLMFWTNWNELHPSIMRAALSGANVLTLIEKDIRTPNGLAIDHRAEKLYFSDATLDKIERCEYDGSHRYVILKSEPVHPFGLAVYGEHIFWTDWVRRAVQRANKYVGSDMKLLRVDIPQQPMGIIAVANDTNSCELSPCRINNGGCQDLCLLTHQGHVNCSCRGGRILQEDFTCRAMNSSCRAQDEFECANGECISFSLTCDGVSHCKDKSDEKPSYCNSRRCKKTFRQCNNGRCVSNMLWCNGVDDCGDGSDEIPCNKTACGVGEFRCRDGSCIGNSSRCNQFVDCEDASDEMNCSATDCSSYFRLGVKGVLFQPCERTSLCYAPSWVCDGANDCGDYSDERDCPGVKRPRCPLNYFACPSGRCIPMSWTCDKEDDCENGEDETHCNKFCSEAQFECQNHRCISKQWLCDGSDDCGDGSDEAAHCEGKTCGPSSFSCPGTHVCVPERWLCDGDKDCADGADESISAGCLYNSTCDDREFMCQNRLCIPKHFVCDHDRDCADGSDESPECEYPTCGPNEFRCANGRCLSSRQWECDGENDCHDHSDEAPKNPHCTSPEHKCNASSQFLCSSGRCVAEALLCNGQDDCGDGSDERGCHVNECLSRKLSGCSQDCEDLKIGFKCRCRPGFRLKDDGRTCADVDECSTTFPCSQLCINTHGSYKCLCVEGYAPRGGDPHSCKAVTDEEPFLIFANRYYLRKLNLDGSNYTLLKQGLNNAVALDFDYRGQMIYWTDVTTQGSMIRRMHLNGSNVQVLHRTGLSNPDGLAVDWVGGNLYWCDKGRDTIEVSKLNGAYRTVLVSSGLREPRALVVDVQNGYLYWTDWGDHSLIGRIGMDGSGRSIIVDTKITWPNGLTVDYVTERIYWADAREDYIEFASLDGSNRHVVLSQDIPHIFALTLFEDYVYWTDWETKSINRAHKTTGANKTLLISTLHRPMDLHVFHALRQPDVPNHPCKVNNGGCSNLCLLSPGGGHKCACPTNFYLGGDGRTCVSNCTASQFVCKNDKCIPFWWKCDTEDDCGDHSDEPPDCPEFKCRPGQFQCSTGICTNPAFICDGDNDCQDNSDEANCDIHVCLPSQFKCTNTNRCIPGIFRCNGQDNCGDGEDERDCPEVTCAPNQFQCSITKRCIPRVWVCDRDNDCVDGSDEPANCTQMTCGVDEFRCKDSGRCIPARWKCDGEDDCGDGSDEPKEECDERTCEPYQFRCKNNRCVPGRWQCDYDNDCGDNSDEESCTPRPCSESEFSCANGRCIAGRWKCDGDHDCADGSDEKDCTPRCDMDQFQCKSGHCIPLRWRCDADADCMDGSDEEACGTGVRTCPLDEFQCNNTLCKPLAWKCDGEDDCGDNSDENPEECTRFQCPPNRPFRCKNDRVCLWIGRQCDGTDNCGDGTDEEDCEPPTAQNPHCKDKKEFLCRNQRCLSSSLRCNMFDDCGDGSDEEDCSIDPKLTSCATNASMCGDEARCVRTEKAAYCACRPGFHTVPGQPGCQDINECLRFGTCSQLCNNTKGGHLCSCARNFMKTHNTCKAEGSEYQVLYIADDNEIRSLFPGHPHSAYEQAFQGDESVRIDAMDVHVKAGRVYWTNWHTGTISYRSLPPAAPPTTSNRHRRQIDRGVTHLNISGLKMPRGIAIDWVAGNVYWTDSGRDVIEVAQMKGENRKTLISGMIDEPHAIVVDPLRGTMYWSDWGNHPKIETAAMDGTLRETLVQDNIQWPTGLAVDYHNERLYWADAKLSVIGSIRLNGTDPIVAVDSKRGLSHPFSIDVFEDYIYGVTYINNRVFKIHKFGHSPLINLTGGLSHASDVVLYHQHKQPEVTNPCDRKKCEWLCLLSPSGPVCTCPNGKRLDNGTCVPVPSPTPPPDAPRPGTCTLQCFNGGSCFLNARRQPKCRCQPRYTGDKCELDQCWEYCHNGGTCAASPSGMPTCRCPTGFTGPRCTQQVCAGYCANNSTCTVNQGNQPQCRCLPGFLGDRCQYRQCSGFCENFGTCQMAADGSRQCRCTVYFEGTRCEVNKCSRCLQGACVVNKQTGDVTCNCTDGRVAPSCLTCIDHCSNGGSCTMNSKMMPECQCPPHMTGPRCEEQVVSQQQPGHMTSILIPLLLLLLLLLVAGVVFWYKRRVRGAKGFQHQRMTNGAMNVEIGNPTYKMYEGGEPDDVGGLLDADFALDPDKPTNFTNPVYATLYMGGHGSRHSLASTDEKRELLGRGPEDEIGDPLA

T1: pleiotrophin (rat (endogenous in primary rat differentiating immature OLs)) (UniProt P63090)
T1 sequence: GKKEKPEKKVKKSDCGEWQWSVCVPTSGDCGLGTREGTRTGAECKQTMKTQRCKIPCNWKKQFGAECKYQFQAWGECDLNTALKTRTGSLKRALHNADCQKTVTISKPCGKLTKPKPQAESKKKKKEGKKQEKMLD

T2: pleiotrophin (rat (endogenous in primary rat differentiating immature OLs)), P63090
T2 chain: T1 sequence

B1: syndecan 3, P33671 45-442 (receptor)
chain: AQRWRNENFERPVDLEGSGDDDSFPDDELDDLYSGSGSGYFEQESGLETAMRFIPDIALAAPTAPAMLPTTVIQPVDTPFEELLSEHPGPEPVTSPPLVTEVTEVVEEPSQRATTISTTTSTTAATTTGAPTMATAPATAATTAPSTPAAPPATATTADIRTTGIQGLLPLPLTTAATAKATTPAVPSPPTTVTTLDTEAPTPRLVNTATSRPRALPRPVTTQEPEVAERSTLPLGTTAPGPTEVAQTPTPESLLTTTQDEPEVPVSGGPSGDFELQEETTQPDTANEVVAVEGAAAKPSPPLGTLPKGARPGLGLHDNAIDSGSSAAQLPQKSILERKEVLVAVIVGGVVGALFAAFLVTLLIYRMKKKDEGSYTLEEPKQASVTYQKPDKQEEFYA

Tests used:
[1] = molecular target: T1, pleiotrophin (rat (endogenous in primary rat differentiating immature OLs)); experiment: co-IP; endogenous proteins in lysate of primary rat differentiating immature OLs; precipitated with PTN (2 ug antibody overnight, Protein A/G Plus agarose beads, 4°C); co-IP buffer 50 mM Tris-HCl pH 7.5, 150 mM NaCl, 1% Triton X-100, 1 mM EDTA; blots for the receptors
[2] = molecular target: T2, pleiotrophin (rat (endogenous in …)); experiment: as above; settings: remark: other sources report otherwise

| Molecule | binding [1] | binding [2] |
| --- | --- | --- |
| LRP1 (from UniProt G3V928 20-4545) (receptor) | no binding | – |
| protein tyrosine phosphatase receptor type Z1 (from UniProt Q62656 25-2316) | binds | – |
| B1 | – | no binding |
